Results as given in US20220017495A1, “CONJUGATES OF BIVALENT EVANS BLUE DYE DERIVATIVES AND METHODS OF USE” (THE UNITED STATES OF AMERICA, AS REPRESENTED BY THE …, priority 2019, published 2022).

Assay: Fluorescence lymphatic imaging after foot pad injection
Format: in vivo, mice
Details: for Time window between detection of the popliteal LN and the sciatic LN: 10 μg into foot pad

Cc1cc(-c2ccc(N=Nc3ccc4c(S(=O)(=O)O)cc(S(=O)(=O)O)c(N)c4c3O)c(C)c2)ccc1N=Nc1ccc2c(S(=O)(=O)O)cc(S(=O)(=O)O)c(N)c2c1O [EB, tetrasodium salt of 6,6′-{(3,3′-dimethyl[1,1′-biphenyl]-4,4′-diyl)bis[diazene-2,1-diyl]}bis(4-amino-5-hydroxynaphthalene-1,3-disulfonate)]
Time to illuminate the sentinel and secondary LNs: ≤ 10 min
Time window between detection of the popliteal LN and the sciatic LN: around 10 min

Cc1cc(-c2ccc(NC(=O)CN3CCN(CC(=O)O)CCN(CC(=O)Nc4ccc(-c5ccc(N=Nc6ccc7c(S(=O)(=O)O)cc(S(=O)(=O)O)c(N)c7c6O)c(C)c5)cc4C)CC3)c(C)c2)ccc1N=Nc1ccc2c(S(=O)(=O)O)cc(S(=O)(=O)O)c(N)c2c1O [N(tEB)2]
Time at which the popliteal LN was visualized: 30 min p.i.
Time at which the sciatic LN were illuminated: around 90 min p.i.
Time window between detection of the popliteal LN and the sciatic LN: up to 60 min

Cc1cc(-c2ccc(NC(=O)CN3CCN(CC(=O)O)CCN(CC(=O)O)CC3)c(C)c2)ccc1N=Nc1ccc2c(S(=O)(=O)O)cc(S(=O)(=O)O)c(N)c2c1O [NtEB]
Time window between detection of the popliteal LN and the sciatic LN: around 10 min

Structures can show the parent of a compound that is named as a salt.
